Experimental findings from PMC11109203 (Nature Communications, 2024) are described below.

This experiment concerns the target T1, Sad1_(1-169) (S. pombe, UniProt Q09825 1-169).
T1 construct: Cleavage is told in general for proteins not needed with their tag; used in ITC, SEC and MST; also called Sad1NTD; source: E. coli Rosetta, purified (glutathione Sepharose 4B, 3C digestion on beads, Superdex); not shown: GST, N-terminal, cleaved
T1 sequence (looked up): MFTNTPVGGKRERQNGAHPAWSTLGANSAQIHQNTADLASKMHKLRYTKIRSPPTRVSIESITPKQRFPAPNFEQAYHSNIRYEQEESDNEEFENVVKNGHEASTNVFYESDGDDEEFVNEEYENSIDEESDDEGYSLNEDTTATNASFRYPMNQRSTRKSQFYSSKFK
As to the kind of experiment: ITC; MicroCal ITC200, 20 °C; 25 mM Tris-HCl pH 8.0, 400 mM NaCl, 2 mM DTT; Sad1 (500 μM) titrated into H2AB (50 μM). Conditions: both partners purified. Background: In ITC the heat of successive injections is recorded.

B1: S. pombe H2AZB fusion protein (H2B_(32-126)-H2A.Z_(22-115)) (other, UniProt P04913 32-126, looked up)
chain: NRKETYSSYIYKVLKQVHPDTGISNQAMRILNSFVNDIFERIATEASKLAAYNKKSTISSREIQTAVRLILPGELAKHAVTEGTKSVTKYSSSAQGQMSHSARAGLQFPVGRVRRFLKAKTQNNMRVGAKSAVYSAAVLEYLTAEVLELAGNAAKDLKVKRITPRHLQLAIRGDEELDTLIRATIAGGG
notes: histone variant H2A.Z, S. pombe, residues 22-115; No linker between the two parts is told; also called H2A.Z-H2B fusion protein; source: E. coli Rosetta, purified (3C digestion, Superdex); not shown: 6*His, N-terminal, cleaved
As usually defined, the Kd is a measure of binding affinity in units of concentration. Lower therefore signals a tighter complex. The molecule B1 gave a Kd of 7.5 µM.
